{"source": "the supplement of paper PMC8728848", "binders": {"B1": {"name": "SfaEH (Escherichia coli), Q1RDG5 (protein)", "chain": "LLCRNNQTGQVFNSGDTSFRVNVSPVVQYDKSISVLDLSQLVSCQNEDSTGQNYDYLKILKGSGFSPALDTKTYGRLDFTSRPTGYARQLPLQFDLQVTEAFYQYGVWKPFPAKLYLYPAPGVFGKVINNGDLLATLYVNKFSTKGQEAGERNFTWRFYATNDVYIQTGTCRVSSNNVKVDLPSYPGGPVTVPLTVRCDQTQSVSYTLSGPVTGSGNTVFANTAASGSGGVGIQLSDNVGPVPAGQPRSLGQVGSSPVSLGLKASYALTGQASPTPGAVQSVINVTFSYN"}}, "test_in_all_cases": "glycan array binding signal (z-score within array); higher = stronger binding", "settings_in_all_cases": "glycan notation: IUPAC condensed, linker removed", "key": {"[1]": {"target": "Neu5Ac(a2-6)GlcNAc(b1-4)GlcNAc(b1-4)GlcNAc", "summary_of_the_method": "(§1)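 The binding signal is a Z-score computed within each array and averaged over linkers. Arrays of the same protein sequence at different concentrations or buffers were also averaged together. Data originate from 3228 arrays in the Consortium for Functional Glycomics database, kept only where the protein sequence was available.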"}, "[2]": {"target": "Neu5Ac(a2-8)Neu5Ac", "summary_of_the_method": "as §1"}, "[3]": {"target": "Neu5Ac(a2-8)Neu5Ac(a2-3)Gal(b1-3)GalNAc(b1-4)[Neu5Ac(a2-3)]Gal(b1-4)Glc", "summary_of_the_method": "as §1"}, "[4]": {"target": "Neu5Ac(a2-8)Neu5Ac(a2-3)Gal(b1-3)GalNAc(b1-4)[Neu5Ac(a2-8)Neu5Ac(a2-3)]Gal(b1-4)Glc", "summary_of_the_method": "as §1"}, "[5]": {"target": "Neu5Ac(a2-8)Neu5Ac(a2-3)Gal(b1-4)Glc", "summary_of_the_method": "as §1"}, "[6]": {"target": "Neu5Ac(a2-8)Neu5Ac(a2-3)Gal(b1-4)GlcNAc", "summary_of_the_method": "as §1"}, "[7]": {"target": "Neu5Ac(a2-8)Neu5Ac(a2-3)[Gal(b1-3)GalNAc(b1-4)]Gal(b1-4)Glc", "summary_of_the_method": "as §1"}, "[8]": {"target": "Neu5Ac(a2-8)Neu5Ac(a2-3)[GalNAc(b1-4)]Gal(b1-4)Glc", "summary_of_the_method": "as §1"}, "[9]": {"target": "Neu5Ac(a2-8)Neu5Ac(a2-8)Neu5Ac", "summary_of_the_method": "as §1"}, "[10]": {"target": "Neu5Ac(a2-8)Neu5Ac(a2-8)Neu5Ac(a2-3)Gal(b1-4)Glc", "summary_of_the_method": "as §1"}, "[11]": {"target": "Neu5Ac(a2-8)Neu5Ac(a2-8)Neu5Ac(a2-3)[Gal(b1-3)GalNAc(b1-4)]Gal(b1-4)Glc", "summary_of_the_method": "as §1"}, "[12]": {"target": "Neu5Ac(a2-8)Neu5Ac(a2-8)Neu5Ac(a2-3)[GalNAc(b1-4)]Gal(b1-4)Glc", "summary_of_the_method": "as §1"}, "[13]": {"target": "Neu5Ac(a2-8)Neu5Ac(a2-8)Neu5Ac(a2-8)Neu5Ac(a2-3)[GalNAc(b1-4)]Gal(b1-4)Glc", "summary_of_the_method": "as §1"}, "[14]": {"target": "Neu5Ac(a2-8)Neu5Gc(a2-3)Gal(b1-4)GlcNAc", "summary_of_the_method": "as §1"}, "[15]": {"target": "Neu5Ac(b2-6)Gal(b1-4)GlcNAc", "summary_of_the_method": "as §1"}, "[16]": {"target": "Neu5Ac(b2-6)GalNAc", "summary_of_the_method": "as §1"}, "[17]": {"target": "Neu5Ac9Ac(a2-3)Gal(b1-4)GlcNAc", "summary_of_the_method": "as §1"}, "[18]": {"target": "Neu5Ac9Ac(a2-6)Gal(b1-4)GlcNAc", "summary_of_the_method": "as §1"}, "[19]": {"target": "Neu5Gc(a2-3)Gal(b1-3)GlcNAc", "summary_of_the_method": "as §1"}, "[20]": {"target": "Neu5Gc(a2-3)Gal(b1-3)[Fuc(a1-4)]GlcNAc", "summary_of_the_method": "as §1"}, "[21]": {"target": "Neu5Gc(a2-3)Gal(b1-4)Glc", "summary_of_the_method": "as §1"}, "[22]": {"target": "Neu5Gc(a2-3)Gal(b1-4)GlcNAc", "summary_of_the_method": "as §1"}, "[23]": {"target": "Neu5Gc(a2-3)Gal(b1-4)GlcNAc(b1-3)Gal(b1-4)GlcNAc(b1-2)Man(a1-3)[Neu5Gc(a2-3)Gal(b1-4)GlcNAc(b1-3)Gal(b1-4)GlcNAc(b1-2)Man(a1-6)]Man(b1-4)GlcNAc(b1-4)GlcNAc", "summary_of_the_method": "as §1"}, "[24]": {"target": "Neu5Gc(a2-3)Gal(b1-4)[Fuc(a1-3)]GlcNAc", "summary_of_the_method": "as §1"}, "[25]": {"target": "Neu5Gc(a2-6)Gal(b1-4)GlcNAc", "summary_of_the_method": "as §1"}, "[26]": {"target": "Neu5Gc(a2-6)GalNAc", "summary_of_the_method": "as §1"}, "[27]": {"target": "Neu5Gc(a2-8)Neu5Ac(a2-3)Gal(b1-4)GlcNAc", "summary_of_the_method": "as §1"}, "[28]": {"target": "Neu5Gc(a2-8)Neu5Gc(a2-3)Gal(b1-4)GlcNAc", "summary_of_the_method": "as §1"}, "[29]": {"target": "Neu5Gc(a2-8)Neu5Gc(a2-3)Gal(b1-4)GlcNAc(b1-3)Gal(b1-4)GlcNAc", "summary_of_the_method": "as §1"}, "[30]": {"target": "Neu5Gc(a2-8)Neu5Gc(a2-6)Gal(b1-4)GlcNAc", "summary_of_the_method": "as §1"}, "[31]": {"target": "Neu5Gc(b2-6)Gal(b1-4)GlcNAc", "summary_of_the_method": "as §1"}}, "note": "The other results are listed elsewhere or left out.", "data": [{"binder": "B1", "values": [{"measurement": "glycan array binding signal (z-score)", "setting": "[1]", "value": 1.19}, {"measurement": "glycan array binding signal (z-score)", "setting": "[2]", "value": 0.125}, {"measurement": "glycan array binding signal (z-score)", "setting": "[3]", "value": 1.34}, {"measurement": "glycan array binding signal (z-score)", "setting": "[4]", "value": 1.01}, {"measurement": "glycan array binding signal (z-score)", "setting": "[5]", "value": 0.69}, {"measurement": "glycan array binding signal (z-score)", "setting": "[6]", "value": -0.28}, {"measurement": "glycan array binding signal (z-score)", "setting": "[7]", "value": -0.016}, {"measurement": "glycan array binding signal (z-score)", "setting": "[8]", "value": 0.178}, {"measurement": "glycan array binding signal (z-score)", "setting": "[9]", "value": 0.078}, {"measurement": "glycan array binding signal (z-score)", "setting": "[10]", "value": 0.437}, {"measurement": "glycan array binding signal (z-score)", "setting": "[11]", "value": 0.954}, {"measurement": "glycan array binding signal (z-score)", "setting": "[12]", "value": -0.874}, {"measurement": "glycan array binding signal (z-score)", "setting": "[13]", "value": -0.666}, {"measurement": "glycan array binding signal (z-score)", "setting": "[14]", "value": -0.786}, {"measurement": "glycan array binding signal (z-score)", "setting": "[15]", "value": 0.418}, {"measurement": "glycan array binding signal (z-score)", "setting": "[16]", "value": -0.605}, {"measurement": "glycan array binding signal (z-score)", "setting": "[17]", "value": -0.618}, {"measurement": "glycan array binding signal (z-score)", "setting": "[18]", "value": -0.071}, {"measurement": "glycan array binding signal (z-score)", "setting": "[19]", "value": -0.062}, {"measurement": "glycan array binding signal (z-score)", "setting": "[20]", "value": -0.549}, {"measurement": "glycan array binding signal (z-score)", "setting": "[21]", "value": -0.315}, {"measurement": "glycan array binding signal (z-score)", "setting": "[22]", "value": -0.397}, {"measurement": "glycan array binding signal (z-score)", "setting": "[23]", "value": -0.442}, {"measurement": "glycan array binding signal (z-score)", "setting": "[24]", "value": 0.13}, {"measurement": "glycan array binding signal (z-score)", "setting": "[25]", "value": -0.572}, {"measurement": "glycan array binding signal (z-score)", "setting": "[26]", "value": -0.577}, {"measurement": "glycan array binding signal (z-score)", "setting": "[27]", "value": -0.503}, {"measurement": "glycan array binding signal (z-score)", "setting": "[28]", "value": 0.37}, {"measurement": "glycan array binding signal (z-score)", "setting": "[29]", "value": -0.69}, {"measurement": "glycan array binding signal (z-score)", "setting": "[30]", "value": 2.33}, {"measurement": "glycan array binding signal (z-score)", "setting": "[31]", "value": -0.164}]}]}
